Assay [1] addresses PfCLC‐GFP (clathrin light chain, endogenous locus tagged with GFP) (P. falciparum) (UniProt Q8ILA9). As to the kind of experiment: affinity purification with mass spectrometry; GFP-Trap agarose precipitation from the PfCLC::GFP parasite line, LC-MS/MS, three replicates, 3D7 parasites as control, same SAINT cutoffs.
The target of assay [2] is PfAP‐1 γ‐GFP (AP‐1 γ subunit, endogenous locus tagged with GFP) (P. falciparum) (UniProt Q8IKS3). Nature of the assay: affinity purification with mass spectrometry; GFP-Trap agarose precipitation from the PfAP-1 γ::GFP parasite line, LC-MS/MS, three replicates, 3D7 parasites as control.
In assay [3] the target is PfCHC‐GFP (clathrin heavy chain, endogenous locus tagged with GFP) (P. falciparum) (UniProt Q8I5L6). Nature of the assay: affinity purification with mass spectrometry; GFP-Trap agarose precipitation from trophozoites of the PfCHC::GFP parasite line, LC-MS/MS, two replicates, 3D7 parasites as control, SAINT (probability above 90%, FDR below 2.5%).
The target is the same in assay [4]. The description is as above. This is another data set of the same source.

Chains of the proteins cited; added tags and fusions are not shown. Lines headed by an entry give the natural chain unless they say otherwise; changes in a name come on top.
UniProt Q8I5L6: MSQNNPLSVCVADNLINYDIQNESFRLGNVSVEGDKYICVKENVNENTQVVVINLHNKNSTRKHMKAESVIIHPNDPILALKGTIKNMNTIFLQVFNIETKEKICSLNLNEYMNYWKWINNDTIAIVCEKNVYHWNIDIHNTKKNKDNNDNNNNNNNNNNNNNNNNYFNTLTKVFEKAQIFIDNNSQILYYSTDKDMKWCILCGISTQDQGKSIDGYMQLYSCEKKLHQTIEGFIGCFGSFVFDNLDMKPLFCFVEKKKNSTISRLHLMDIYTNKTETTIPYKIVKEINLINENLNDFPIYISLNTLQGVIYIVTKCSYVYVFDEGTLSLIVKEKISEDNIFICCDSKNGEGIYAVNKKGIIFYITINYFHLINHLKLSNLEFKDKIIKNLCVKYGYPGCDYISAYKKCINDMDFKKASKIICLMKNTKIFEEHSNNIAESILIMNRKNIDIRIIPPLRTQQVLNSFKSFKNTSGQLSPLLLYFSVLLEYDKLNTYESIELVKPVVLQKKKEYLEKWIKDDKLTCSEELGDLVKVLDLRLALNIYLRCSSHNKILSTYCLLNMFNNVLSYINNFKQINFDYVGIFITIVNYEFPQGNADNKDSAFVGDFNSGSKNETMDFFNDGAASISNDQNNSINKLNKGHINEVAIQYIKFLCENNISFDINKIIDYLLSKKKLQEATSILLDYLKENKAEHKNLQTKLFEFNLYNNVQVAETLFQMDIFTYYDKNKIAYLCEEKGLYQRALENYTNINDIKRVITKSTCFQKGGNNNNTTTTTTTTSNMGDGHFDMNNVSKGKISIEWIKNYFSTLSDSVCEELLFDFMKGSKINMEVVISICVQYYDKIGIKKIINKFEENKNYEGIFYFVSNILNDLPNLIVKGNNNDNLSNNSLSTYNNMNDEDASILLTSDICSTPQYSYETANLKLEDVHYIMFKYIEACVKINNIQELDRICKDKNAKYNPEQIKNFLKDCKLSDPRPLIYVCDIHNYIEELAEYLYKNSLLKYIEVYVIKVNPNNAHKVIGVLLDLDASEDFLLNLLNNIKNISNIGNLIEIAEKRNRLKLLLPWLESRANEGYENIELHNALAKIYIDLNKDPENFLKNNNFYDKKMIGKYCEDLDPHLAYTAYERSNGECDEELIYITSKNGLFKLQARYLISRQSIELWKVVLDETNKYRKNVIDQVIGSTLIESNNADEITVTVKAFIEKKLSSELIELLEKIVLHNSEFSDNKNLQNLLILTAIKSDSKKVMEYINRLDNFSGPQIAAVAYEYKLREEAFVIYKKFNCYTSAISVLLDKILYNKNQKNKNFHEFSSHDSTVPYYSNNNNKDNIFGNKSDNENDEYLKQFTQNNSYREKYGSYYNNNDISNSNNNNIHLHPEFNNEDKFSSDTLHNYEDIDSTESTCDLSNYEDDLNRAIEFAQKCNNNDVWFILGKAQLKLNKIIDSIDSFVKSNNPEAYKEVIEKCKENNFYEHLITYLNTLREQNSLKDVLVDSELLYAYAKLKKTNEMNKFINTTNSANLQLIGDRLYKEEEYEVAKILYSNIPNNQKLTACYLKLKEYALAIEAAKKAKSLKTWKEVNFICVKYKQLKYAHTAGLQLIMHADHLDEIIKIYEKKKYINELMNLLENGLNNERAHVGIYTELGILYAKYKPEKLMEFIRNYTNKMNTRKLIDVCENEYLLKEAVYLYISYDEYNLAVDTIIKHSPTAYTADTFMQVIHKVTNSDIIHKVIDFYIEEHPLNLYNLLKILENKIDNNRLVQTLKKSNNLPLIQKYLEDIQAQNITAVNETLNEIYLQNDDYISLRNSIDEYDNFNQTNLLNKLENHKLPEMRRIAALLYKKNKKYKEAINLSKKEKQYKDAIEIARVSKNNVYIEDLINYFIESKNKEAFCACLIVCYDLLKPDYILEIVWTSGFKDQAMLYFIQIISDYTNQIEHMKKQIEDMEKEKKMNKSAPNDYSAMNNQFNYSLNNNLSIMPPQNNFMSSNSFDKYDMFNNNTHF
UniProt Q8III7: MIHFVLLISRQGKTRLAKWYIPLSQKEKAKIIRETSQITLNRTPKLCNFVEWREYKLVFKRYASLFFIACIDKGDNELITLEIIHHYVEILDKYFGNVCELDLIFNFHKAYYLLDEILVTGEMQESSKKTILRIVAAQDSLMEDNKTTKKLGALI
UniProt Q8IL63: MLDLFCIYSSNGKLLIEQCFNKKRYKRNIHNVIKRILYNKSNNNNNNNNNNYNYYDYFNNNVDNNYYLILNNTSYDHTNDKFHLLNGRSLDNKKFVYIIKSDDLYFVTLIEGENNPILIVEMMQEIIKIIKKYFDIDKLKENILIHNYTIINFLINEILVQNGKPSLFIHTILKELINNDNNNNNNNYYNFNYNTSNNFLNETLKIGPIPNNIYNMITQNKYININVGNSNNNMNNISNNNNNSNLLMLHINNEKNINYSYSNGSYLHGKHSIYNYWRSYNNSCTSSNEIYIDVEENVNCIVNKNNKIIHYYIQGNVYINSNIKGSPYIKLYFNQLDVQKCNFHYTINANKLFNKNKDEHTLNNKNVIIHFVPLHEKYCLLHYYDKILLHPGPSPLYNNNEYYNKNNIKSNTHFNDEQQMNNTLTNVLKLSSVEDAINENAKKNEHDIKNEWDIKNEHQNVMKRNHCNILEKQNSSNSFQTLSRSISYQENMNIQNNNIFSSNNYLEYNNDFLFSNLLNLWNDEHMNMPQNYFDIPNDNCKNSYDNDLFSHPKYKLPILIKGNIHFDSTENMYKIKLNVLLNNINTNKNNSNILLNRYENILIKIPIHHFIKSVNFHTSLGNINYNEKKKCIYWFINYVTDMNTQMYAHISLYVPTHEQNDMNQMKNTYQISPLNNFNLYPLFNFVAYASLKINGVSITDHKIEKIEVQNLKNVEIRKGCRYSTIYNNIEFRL
UniProt Q8IIH2: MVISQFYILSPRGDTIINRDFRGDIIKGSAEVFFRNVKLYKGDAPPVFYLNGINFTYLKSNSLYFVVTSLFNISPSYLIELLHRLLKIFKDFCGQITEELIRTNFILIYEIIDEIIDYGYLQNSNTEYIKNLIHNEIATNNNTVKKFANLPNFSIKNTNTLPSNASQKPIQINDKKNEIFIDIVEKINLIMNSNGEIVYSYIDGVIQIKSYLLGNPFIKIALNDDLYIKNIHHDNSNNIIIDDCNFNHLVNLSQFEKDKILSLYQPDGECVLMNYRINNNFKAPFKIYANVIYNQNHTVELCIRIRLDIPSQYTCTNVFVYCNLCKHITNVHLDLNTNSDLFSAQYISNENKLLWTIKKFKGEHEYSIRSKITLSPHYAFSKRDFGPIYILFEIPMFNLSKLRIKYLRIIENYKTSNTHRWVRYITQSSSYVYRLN
UniProt Q8ILP0: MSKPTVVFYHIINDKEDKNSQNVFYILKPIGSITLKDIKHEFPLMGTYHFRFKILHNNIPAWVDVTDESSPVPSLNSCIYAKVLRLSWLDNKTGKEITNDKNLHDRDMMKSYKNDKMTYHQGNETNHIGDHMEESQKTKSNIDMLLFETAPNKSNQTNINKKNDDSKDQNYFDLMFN
UniProt Q8IJF4: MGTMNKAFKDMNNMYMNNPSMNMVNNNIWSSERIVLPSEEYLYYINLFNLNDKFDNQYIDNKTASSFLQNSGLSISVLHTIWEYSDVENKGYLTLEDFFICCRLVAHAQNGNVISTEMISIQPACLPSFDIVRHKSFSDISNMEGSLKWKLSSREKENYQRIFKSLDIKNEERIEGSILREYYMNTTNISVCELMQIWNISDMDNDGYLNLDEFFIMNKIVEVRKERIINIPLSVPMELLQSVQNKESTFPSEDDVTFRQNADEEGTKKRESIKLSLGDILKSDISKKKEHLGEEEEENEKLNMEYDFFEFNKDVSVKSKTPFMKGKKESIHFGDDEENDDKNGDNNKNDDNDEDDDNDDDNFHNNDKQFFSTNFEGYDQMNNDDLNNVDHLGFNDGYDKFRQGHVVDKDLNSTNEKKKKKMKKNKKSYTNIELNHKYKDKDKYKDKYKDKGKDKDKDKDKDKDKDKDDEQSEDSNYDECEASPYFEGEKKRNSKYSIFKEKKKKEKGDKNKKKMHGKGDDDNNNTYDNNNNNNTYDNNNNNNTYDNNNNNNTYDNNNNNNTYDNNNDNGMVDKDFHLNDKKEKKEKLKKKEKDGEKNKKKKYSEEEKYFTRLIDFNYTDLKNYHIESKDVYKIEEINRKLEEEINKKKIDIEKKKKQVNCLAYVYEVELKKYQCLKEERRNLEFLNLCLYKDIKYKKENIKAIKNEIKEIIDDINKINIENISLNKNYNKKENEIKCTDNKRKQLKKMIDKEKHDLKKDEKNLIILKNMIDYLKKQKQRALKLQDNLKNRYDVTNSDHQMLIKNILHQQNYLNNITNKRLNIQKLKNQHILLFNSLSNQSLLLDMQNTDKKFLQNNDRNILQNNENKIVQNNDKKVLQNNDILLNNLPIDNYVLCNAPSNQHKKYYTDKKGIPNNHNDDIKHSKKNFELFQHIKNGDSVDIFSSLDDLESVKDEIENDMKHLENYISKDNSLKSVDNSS
UniProt Q8IKV8: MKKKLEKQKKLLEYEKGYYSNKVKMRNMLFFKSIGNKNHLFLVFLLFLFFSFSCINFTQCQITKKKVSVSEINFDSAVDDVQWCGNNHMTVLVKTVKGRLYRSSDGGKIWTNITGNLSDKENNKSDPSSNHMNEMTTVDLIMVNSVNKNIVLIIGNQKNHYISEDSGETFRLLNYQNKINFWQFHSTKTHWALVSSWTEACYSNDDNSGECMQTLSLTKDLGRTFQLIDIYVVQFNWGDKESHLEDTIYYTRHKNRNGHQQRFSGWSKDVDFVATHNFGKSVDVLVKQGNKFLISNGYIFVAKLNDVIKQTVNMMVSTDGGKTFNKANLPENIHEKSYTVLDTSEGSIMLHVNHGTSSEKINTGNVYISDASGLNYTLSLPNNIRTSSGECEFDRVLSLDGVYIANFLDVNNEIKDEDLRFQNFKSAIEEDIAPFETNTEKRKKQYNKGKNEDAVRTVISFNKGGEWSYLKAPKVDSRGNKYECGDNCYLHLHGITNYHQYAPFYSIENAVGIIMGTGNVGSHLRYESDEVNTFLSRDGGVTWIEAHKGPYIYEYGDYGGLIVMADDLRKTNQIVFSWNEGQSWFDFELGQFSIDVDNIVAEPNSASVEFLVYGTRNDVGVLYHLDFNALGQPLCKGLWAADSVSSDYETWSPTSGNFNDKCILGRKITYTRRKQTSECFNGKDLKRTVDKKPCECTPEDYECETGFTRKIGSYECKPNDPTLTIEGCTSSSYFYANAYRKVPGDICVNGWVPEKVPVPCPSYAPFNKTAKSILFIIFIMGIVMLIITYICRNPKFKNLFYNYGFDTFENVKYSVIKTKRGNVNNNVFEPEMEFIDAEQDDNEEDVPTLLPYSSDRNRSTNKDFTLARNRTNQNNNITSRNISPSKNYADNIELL
UniProt Q8I333: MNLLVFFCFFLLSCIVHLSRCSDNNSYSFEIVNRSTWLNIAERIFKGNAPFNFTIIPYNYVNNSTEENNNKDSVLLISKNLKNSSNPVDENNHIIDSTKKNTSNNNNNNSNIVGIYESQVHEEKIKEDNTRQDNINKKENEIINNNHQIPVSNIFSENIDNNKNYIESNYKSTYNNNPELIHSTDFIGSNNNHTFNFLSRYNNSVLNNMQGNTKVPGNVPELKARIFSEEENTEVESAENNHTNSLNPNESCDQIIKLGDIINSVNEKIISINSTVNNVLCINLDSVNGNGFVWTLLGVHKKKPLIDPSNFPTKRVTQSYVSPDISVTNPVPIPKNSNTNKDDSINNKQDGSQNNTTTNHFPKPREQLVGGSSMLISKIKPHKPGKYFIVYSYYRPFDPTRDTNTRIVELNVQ
UniProt Q8IKN5: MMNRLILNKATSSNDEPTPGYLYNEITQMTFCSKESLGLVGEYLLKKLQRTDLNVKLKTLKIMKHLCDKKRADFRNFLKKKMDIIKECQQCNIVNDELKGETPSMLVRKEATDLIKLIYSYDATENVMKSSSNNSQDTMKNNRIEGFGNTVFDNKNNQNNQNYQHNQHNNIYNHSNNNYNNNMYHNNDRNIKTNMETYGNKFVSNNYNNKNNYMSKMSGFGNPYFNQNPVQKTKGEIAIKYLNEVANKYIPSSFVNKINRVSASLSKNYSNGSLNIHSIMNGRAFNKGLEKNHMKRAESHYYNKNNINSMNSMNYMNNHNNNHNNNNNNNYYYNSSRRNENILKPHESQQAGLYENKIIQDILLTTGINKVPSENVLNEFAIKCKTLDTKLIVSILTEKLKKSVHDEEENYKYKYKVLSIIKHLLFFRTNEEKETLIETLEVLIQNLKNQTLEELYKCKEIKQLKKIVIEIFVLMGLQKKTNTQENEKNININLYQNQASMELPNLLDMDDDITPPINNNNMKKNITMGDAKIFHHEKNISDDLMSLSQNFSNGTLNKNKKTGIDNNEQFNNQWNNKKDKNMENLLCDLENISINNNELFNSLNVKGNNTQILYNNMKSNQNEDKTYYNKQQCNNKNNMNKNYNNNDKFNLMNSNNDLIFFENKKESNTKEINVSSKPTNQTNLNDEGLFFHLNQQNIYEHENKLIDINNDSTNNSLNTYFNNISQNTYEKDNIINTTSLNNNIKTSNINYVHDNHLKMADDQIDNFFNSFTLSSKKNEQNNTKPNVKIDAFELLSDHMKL

Read-outs that look alike come from different tables or passages of the source. These are yes or no findings as the source states them, for the method shown. In cells and extracts the contact can be indirect. These calls come from enrichment with a bait or labelling near it, and not all partners need be listed. For some of these results: No binding means not detected with the bait.

In the case of AP‐1 μ1 (from UniProt Q8IEK4), the binding result in assay [1], in assay [2] and in assay [3] was “binds” in each case.

On to AP‐1 σ1 (from UniProt Q8III7), for which the binding result in assay [1], in assay [2] and in assay [3] was “binds” throughout.

Take AP‐2 α (from UniProt C6KT12): the binding result in assay [1] was “binds”; in assay [3], “no binding”.

In the case of AP‐2 μ2 (from UniProt Q8I5M5), the binding entry in assay [2] is “binds”; in assay [3], “no binding”.

As to AP‐3 β (from UniProt C6KSX7), the binding entry in assay [1] was “binds”.

Regarding AP‐3 μ3 (from UniProt Q8IL63), the binding entry in assay [1] and in assay [2] was “binds” in each case.

AP‐4 β (from UniProt Q8IBF8): in assay [1], the binding result was “binds”.

With AP‐4 ε (from UniProt Q8I3A8), the binding entry in assay [1] is given as “binds”.

Take AP‐4 μ4 (from UniProt Q8IIH2): the binding result in assay [1] is on record as “binds”.

For AP‐4 σ (from UniProt Q8IFN5), the binding entry in assay [1] was “binds”.

As for “DIX domain‐containing protein (from UniProt Q8ILP0)”, the binding entry in assay [1] and in assay [3] was “binds” throughout.

For “Dipeptidyl aminopeptidase 1 (from UniProt Q8IIJ9 28-700) (enzyme)”, the binding result in assay [1] and in assay [2] was “binds” in each case.

With DnaJ protein (from UniProt Q8ILY2), the binding result in assay [1], in assay [2] and in assay [3] was “binds” each time.

As to Eps15 (from UniProt Q8IJF4), the binding entry in assay [1] and in assay [2] was “binds” in each case.

Consider KIC3 (from UniProt Q8I308), for which the binding result in assay [1] is recorded as “binds”; in assay [3] it was “no binding”.

For the molecule “PfAP‐1 γ (AP‐1 γ subunit) (from UniProt Q8IKS3)”, the binding entry in assay [1] and in assay [3] was “binds” each time.

“PfCHC (clathrin heavy chain) (from UniProt Q8I5L6 1-1997)”: the binding result in assay [1] and in assay [2] was “binds” each time.

For “PfCLC (clathrin light chain) (from UniProt Q8ILA9)”, the binding result in assay [2] and in assay [3] was “binds” throughout.

With Sortilin (from UniProt Q8IKV8), the binding entry in assay [1] and in assay [3] was “binds” throughout.

For the molecule “V‐type proton ATPase catalytic subunit A (from UniProt Q76NM6 1-611)”, the binding entry in assay [1] and in assay [2] was “binds” throughout.

With “V‐type proton ATPase subunit E (from UniProt Q8I2H3)”, the binding result in assay [1] and in assay [2] was “binds” throughout.

For “V‐type proton ATPase subunit F (from UniProt Q8IHW4)”, the binding entry in assay [1] and in assay [2] was “binds” each time.

As to “V‐type proton ATPase subunit G (from UniProt Q8IE84)”, the binding result in assay [1] and in assay [2] was “binds” in each case.

For the molecule falstatin (from UniProt Q8I333), the binding result in assay [1] is listed as “binds”.

Regarding “putative AP‐4 complex accessory subunit Tepsin (from UniProt Q8IKN5)”, the binding result in assay [1], in assay [2] and in assay [3] was “binds” throughout.

B1: M17 leucyl aminopeptidase (enzyme, UniProt Q8IL11 1-605)
chain: MYFSSLCKFLPISEKEKIYLNIVKKRFCKSNIYYNNNNNNIINYNKRGLKFYPFCNNLKKNINFVNINNKKGINFHSINKERKMASEVPQVVSLDPTSIPIEYNTPIHDIKVQVYDIKGGCNVEEGLTIFLVNNPGKENGPVKISSKVNDKNVSEFLKDENMEKFNVKLGTSKHFYMFNDNKNSVAVGYVGCGSVADLSEADMKRVVLSLVTMLHDNKLSKLTVVFEINVDKNLFRFFLETLFYEYMTDERFKSTDKNVNMEYIKHLGVYINNADTYKEEVEKARVYYFGTYYASQLIAAPSNYCNPVSLSNAAVELAQKLNLEYKILGVKELEELKMGAYLSVGKGSMYPNKFIHLTYKSKGDVKKKIALVGKGITFDSGGYNLKAAPGSMIDLMKFDMSGCAAVLGCAYCVGTLKPENVEIHFLSAVCENMVSKNSYRPGDIITASNGKTIEVGNTDAEGRLTLADALVYAEKLGVDYIVDIATLTGAMLYSLGTSYAGVFGNNEELINKILNSSKTSNEPVWWLPIINEYRATLNSKYADINNISSSVKASSIVASLFLKEFVQNTAWAHIDIAGVSWNFKARKPKGFGVRLLTEFVLNDAL
In the case of B1, the binding result in assay [1] and in assay [4] was “binds” each time.

B2: M18 aspartyl aminopeptidase (enzyme, UniProt Q8I2J3 1-570)
chain: MDKKAREYAQDALKFIQRSGSNFLACKNLKERLENNGFINLSEGETWNLNKNEGYVLCKENRNICGFFVGKNFNIDTGSILISIGHIDSCALKISPNNNVIKKKIHQINVECYGSGLWHTWFDRSLGLSGQVLYKKGNKLVEKLIQINKSVLFLPSLAIHLQNRTRYDFSVKINYENHIKPIISTTLFNQLNKCKRNNVHHDTILTTDTKFSHKENSQNKRDDQMCHSFNDKDVSNHNLDKNTIEHLTNQQNEEKNKHTKDNPNSKDIVEHINTDNSYPLLYLLSKELNCKEEDILDFELCLMDTQEPCFTGVYEEFIEGARFDNLLGSFCVFEGFIELVNSIKNHTSNENTNHTNNITNDINDNIHNNLYISIGYDHEEIGSLSEVGARSYCTKNFIDRIISSVFKKEIHEKNLSVQEIYGNLVNRSFILNVDMAHCSHPNYPETVQDNHQLFFHEGIAIKYNTNKNYVTSPLHASLIKRTFELYYNKYKQQIKYQNFMVKNDTPCGSTVGSMVAANLSMPGIDIGIPQLAMHSIREIAAVHDVFFLIKGVFAFYTYYNQVLSTCVHDK
For the molecule B2, the binding result in assay [1] and in assay [2] was “binds” each time.

For the origin of these results see publication PMC12742282.
